In the supplement of paper PMC10849652:
The list shows a part of the results.

Chains of the proteins cited; added tags and fusions are not shown. Lines headed by an entry give the natural chain unless they say otherwise; changes in a name come on top.
UniProt Q96EX3: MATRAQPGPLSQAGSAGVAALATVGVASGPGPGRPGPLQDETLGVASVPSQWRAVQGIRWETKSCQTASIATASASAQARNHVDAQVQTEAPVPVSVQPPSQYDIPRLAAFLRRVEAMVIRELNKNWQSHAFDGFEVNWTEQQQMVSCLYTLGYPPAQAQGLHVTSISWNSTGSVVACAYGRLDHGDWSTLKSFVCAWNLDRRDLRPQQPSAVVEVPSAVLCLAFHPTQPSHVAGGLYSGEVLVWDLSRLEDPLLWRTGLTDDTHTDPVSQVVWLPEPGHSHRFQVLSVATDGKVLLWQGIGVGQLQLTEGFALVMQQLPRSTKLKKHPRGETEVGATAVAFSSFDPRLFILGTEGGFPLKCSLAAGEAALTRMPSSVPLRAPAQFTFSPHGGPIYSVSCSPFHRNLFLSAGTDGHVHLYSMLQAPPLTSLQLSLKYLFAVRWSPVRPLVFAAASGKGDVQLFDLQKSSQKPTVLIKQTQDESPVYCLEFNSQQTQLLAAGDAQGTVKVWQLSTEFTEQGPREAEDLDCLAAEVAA
UniProt Q9P2S5: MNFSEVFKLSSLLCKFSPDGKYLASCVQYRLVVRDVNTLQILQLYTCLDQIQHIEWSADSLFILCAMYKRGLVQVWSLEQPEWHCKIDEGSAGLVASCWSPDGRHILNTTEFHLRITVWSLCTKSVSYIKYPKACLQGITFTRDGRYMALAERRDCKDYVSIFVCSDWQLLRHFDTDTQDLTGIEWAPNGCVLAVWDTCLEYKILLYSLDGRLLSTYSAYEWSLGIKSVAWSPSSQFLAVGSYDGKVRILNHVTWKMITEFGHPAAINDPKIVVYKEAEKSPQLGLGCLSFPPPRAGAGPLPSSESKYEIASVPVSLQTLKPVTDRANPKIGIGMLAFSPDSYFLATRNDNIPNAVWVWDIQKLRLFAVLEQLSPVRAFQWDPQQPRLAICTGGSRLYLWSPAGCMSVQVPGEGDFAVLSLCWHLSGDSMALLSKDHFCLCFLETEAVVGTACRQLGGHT
UniProt Q15906, whole entry, looked up: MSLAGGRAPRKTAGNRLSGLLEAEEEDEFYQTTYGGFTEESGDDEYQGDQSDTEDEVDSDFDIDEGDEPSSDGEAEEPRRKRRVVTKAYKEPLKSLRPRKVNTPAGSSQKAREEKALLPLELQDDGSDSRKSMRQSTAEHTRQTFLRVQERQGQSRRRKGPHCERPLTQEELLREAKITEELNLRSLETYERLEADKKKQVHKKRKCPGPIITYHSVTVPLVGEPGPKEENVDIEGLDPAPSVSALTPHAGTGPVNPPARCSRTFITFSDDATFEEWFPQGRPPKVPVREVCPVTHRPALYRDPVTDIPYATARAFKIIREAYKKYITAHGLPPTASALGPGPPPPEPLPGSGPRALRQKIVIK
UniProt Q92558: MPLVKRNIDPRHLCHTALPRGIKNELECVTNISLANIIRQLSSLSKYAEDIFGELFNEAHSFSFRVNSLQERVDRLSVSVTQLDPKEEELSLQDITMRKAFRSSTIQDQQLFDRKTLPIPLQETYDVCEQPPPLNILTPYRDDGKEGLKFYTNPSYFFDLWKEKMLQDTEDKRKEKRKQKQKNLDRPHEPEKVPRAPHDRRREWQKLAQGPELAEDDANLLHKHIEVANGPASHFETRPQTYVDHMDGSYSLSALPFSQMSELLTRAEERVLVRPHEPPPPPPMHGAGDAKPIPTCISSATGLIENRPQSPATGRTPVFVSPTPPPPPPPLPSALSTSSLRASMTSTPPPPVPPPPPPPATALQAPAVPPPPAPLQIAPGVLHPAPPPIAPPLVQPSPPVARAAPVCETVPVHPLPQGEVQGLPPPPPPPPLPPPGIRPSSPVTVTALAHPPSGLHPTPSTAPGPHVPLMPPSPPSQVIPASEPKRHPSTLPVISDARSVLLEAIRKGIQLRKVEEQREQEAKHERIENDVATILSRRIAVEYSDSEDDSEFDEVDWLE
UniProt Q96AX1: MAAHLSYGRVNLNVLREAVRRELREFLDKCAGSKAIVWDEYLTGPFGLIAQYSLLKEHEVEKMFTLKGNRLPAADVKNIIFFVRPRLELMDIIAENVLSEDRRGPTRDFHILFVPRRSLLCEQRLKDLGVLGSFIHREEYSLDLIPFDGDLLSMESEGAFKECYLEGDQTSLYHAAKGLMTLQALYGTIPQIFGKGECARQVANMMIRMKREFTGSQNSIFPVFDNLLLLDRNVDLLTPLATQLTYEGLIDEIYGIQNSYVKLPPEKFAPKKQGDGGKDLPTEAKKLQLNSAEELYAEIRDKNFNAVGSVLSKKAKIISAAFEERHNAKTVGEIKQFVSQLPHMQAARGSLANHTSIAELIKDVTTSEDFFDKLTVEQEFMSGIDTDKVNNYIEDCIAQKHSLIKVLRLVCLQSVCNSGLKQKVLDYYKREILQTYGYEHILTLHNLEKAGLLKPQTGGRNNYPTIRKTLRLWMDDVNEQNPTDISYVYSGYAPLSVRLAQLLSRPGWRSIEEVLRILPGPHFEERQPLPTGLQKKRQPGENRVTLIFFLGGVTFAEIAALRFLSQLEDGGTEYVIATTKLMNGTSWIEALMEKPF
UniProt Q8TAF3: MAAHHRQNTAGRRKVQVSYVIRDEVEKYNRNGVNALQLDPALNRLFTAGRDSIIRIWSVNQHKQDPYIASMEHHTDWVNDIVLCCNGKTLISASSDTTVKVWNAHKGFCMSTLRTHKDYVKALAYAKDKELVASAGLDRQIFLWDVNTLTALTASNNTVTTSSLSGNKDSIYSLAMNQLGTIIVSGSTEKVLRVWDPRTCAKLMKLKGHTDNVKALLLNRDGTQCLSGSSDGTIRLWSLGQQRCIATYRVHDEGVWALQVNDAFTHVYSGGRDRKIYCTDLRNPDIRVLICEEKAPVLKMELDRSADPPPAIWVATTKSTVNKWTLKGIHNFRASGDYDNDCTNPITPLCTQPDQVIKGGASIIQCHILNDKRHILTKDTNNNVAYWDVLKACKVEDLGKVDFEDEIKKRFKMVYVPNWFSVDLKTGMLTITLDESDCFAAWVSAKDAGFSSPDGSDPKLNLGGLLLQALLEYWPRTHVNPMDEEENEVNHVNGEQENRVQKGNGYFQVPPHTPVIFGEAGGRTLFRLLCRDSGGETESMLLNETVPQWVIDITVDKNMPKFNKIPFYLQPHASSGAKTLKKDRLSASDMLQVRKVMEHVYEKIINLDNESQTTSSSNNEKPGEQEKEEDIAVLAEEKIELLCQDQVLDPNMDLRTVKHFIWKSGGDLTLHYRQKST
UniProt Q9UID3: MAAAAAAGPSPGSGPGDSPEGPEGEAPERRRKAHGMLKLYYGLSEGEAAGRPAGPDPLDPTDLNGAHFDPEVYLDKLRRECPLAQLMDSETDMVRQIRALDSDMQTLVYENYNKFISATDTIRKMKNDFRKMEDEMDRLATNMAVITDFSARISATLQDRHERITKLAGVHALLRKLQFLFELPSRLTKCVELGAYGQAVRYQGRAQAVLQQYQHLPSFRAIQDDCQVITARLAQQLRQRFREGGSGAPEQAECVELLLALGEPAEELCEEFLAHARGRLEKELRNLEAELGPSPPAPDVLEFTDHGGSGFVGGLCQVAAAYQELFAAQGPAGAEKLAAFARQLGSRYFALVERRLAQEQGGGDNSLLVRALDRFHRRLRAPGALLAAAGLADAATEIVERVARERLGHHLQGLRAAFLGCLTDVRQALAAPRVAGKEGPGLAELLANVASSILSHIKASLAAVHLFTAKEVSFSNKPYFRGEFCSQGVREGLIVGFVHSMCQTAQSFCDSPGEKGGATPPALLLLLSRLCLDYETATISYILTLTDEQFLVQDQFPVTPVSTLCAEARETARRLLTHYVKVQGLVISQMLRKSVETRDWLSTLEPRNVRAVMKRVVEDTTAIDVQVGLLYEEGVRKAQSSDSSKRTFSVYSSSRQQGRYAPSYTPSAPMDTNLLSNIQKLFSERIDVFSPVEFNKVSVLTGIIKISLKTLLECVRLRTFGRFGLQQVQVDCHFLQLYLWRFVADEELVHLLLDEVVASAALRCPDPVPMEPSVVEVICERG
UniProt Q9H9H4: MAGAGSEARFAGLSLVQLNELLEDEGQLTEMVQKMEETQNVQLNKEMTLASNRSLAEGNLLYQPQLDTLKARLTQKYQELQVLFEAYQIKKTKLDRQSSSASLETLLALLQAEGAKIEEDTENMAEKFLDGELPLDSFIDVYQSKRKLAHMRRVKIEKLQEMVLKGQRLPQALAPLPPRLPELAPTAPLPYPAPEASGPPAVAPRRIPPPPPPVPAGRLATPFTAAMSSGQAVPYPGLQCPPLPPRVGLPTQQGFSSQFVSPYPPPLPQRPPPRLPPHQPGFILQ
UniProt Q9Y4P8: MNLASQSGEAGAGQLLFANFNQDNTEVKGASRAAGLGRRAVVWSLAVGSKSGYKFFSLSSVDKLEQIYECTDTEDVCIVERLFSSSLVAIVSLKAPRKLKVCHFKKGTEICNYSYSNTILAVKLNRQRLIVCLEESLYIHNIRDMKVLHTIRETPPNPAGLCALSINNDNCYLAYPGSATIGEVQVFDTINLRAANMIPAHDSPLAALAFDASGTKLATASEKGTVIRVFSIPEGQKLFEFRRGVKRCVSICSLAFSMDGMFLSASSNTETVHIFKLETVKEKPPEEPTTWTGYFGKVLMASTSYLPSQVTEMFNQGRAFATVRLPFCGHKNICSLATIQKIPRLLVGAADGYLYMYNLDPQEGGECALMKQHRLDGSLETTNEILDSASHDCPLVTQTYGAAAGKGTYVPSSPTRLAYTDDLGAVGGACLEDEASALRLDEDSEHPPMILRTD
UniProt Q9BV38: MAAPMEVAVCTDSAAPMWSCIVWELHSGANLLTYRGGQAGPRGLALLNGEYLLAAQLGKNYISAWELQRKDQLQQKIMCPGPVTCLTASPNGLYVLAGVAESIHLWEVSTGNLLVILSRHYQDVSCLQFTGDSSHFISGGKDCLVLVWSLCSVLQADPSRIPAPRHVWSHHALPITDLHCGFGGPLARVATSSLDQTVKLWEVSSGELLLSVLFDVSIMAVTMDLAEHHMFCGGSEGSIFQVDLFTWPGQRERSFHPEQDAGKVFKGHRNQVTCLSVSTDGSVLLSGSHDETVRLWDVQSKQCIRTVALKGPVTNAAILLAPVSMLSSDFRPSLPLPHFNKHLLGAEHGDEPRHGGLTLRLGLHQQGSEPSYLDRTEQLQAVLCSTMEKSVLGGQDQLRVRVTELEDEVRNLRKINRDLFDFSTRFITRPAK
UniProt Q86Y07: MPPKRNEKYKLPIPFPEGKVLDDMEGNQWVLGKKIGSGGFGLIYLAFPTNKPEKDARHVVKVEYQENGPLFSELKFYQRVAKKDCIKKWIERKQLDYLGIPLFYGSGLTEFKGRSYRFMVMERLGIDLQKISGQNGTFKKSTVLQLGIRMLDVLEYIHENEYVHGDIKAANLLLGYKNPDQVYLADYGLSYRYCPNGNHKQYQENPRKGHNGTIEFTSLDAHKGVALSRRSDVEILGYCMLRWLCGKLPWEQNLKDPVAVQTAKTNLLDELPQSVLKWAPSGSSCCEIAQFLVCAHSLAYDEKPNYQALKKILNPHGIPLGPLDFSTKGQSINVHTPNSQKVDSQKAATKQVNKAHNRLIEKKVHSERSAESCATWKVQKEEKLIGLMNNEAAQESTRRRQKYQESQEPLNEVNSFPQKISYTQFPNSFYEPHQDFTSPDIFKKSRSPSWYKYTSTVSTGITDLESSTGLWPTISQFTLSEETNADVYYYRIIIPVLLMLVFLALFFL
UniProt Q96JC1: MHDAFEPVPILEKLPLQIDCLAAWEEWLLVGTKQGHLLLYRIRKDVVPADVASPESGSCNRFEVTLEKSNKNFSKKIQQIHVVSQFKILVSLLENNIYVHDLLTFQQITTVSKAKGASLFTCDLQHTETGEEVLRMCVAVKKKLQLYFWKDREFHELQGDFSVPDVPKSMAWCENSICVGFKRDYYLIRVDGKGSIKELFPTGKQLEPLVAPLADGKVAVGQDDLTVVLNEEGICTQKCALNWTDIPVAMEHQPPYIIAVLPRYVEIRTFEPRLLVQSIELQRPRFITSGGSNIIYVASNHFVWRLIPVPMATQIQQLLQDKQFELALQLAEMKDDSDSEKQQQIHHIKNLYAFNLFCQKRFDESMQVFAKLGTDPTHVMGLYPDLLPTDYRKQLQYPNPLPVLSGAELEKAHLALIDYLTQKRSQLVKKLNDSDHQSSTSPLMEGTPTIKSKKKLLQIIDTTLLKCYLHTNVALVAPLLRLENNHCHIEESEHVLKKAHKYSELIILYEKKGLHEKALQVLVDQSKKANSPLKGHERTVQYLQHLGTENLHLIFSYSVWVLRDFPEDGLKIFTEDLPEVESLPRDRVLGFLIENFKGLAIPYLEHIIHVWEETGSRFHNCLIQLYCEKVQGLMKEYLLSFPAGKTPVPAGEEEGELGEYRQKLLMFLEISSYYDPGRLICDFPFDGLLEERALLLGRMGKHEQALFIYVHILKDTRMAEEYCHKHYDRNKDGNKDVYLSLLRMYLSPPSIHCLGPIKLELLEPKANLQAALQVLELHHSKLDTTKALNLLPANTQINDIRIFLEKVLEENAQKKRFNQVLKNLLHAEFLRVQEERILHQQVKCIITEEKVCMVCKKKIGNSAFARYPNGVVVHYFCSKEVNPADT

Tests used:
Assay in all cases: log2 fold change, soluble protein after heating vs DMSO (PISA); higher = thermal stabilisation; K562 cells, 10 uM, 30 min; active = over 0.2 and 3.5 SD of the protein, either way, in both replicates (recomputed)
erlotinib = compound: C#Cc1cccc(Nc2ncnc3cc(OCCOC)c(OCCOC)cc23)c1 [erlotinib]
Summary of the method: (§1)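 Quantification of soluble protein used TMTpro 16plex LC-MS/MS, with channel sums equalised. Samples were the supernatant after 21,000xg for 90 min of pooled aliquots from K562 cells (2×10^6 cells/mL) treated with 10 μM compound for 30 min, heated for 3 min over 48°C-58°C, and extracted in PBS with 0.5% NP-40 at 4°C. Values, from duplicates, describe thermal stability against control samples on a log2 fold-change scale.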

[1] = compound: C/C(=N\NC(=O)C1=CC(=CC=C1)S(=O)(=O)N2CCOCC2)/C3=C(C=CC(=C3)Cl)O
Summary of the method: as §1

[2] = compound: C1=CC(=C(C=C1Cl)C2=NC3=NC=CN=C3C(=N2)NC4=CC=NC=C4)F
Summary of the method: as §1

[3] = compound: C1=CC(=CC=C1C2=NC3=C(N2)C=C(C=C3)C(=O)N)OC4=CC=C(C=C4)Cl
Summary of the method: as §1

[4] = compound: C1=CC2=C(C=CC(=C2)/C=C\3/C(=O)NC(=NCC4=CC=CS4)S3)N=C1
Summary of the method: as §1

[5] = compound: C1=CC2=NC=CN=C2C=C1/C=C/3\C(=O)NC(=O)S3
Summary of the method: as §1

[6] = compound: C1=CC=C(C=C1)C2=NC(=C(N2)C3=CC=NC=C3)C4=CC(=C(C=C4)Cl)O
Summary of the method: as §1

[7] = compound: C1=CC=C2C(=C1)C3=NNC4=CC=CC(=C43)C2=O
Summary of the method: as §1

[8] = compound: C1CCN(C1)C(=O)NC2=CC=CC(=C2)NC3=NC=C(C(=N3)NCCC4=CN=CN4)Br
Summary of the method: as §1

[9] = compound: C1CN(CCC1(CC2=CC=C(C=C2)Cl)N)C3=NC=NC4=C3C=CN4
Summary of the method: as §1

Measured: log2 fold change

VWA8 (UniProt A3KMH1)
inactive: erlotinib 0.077 | [1] 0.037 | [2] 0.017 | [3] -0.036 | [4] 0.108 | [5] 0.008 | [6] 0.017 | [7] 0.069 | [8] -0.009 | [9] 0.042

WDR34 (UniProt Q96EX3)
inactive: erlotinib 0.019 | [1] 0.004 | [2] -0.023 | [3] -0.041 | [4] 0.062 | [5] -0.002 | [6] 0.063 | [7] -0.037

WRAP73 (UniProt Q9P2S5)
inactive: erlotinib -0.08 | [1] 0.02 | [2] -0.012 | [3] 0.053 | [4] -0.051 | [5] 0.134 | [6] 0.039 | [7] -0.005 | [8] -0.018 | [9] 0.041

VPS72 isoform 2 (UniProt Q15906)
inactive: erlotinib -0.017 | [1] -0.062 | [2] 0.053 | [3] -0.108 | [4] 0.04 | [5] -0.094 | [6] -0.054 | [7] -0.134 | [8] 0.056 | [9] 0.028

WDR61 (UniProt Q9GZS3)
inactive: erlotinib 0.021 | [1] 0.066 | [2] 0.051 | [3] 0.027 | [4] 0.057 | [5] -0.016 | [6] 0.01 | [7] 0 | [8] 0.077 | [9] 0.026

WASF1 (UniProt Q92558)
inactive: erlotinib 0.034 | [1] -0.017 | [2] -0.017 | [3] 0.052 | [4] 0.033 | [5] 0.017 | [6] -0.118 | [7] 0.012 | [8] -0.023 | [9] 0.049

WDR33 (UniProt Q9C0J8)
inactive: erlotinib 0.047 | [1] -0.036 | [2] -0.486 | [3] -0.075 | [4] 0.006 | [5] 0.113 | [6] -0.069 | [7] -0.065 | [8] -0.033 | [9] 0.006

VPS33A (UniProt Q96AX1)
inactive: erlotinib 0.025 | [1] 0.035 | [2] -0.054 | [3] -0.01 | [4] 0.057 | [5] 0.013 | [6] 0.005 | [7] -0.023 | [8] -0.051 | [9] -0.083

WDR48 (UniProt Q8TAF3)
inactive: erlotinib 0.015 | [1] 0 | [2] 0.01 | [3] -0.002 | [4] -0.011 | [5] 0.033 | [6] -0.02 | [7] -0.039 | [8] -0.012 | [9] 0.042

VPS51 (UniProt Q9UID3)
inactive: erlotinib -0.003 | [1] 0.123 | [2] -0.02 | [3] -0.01 | [4] -0.002 | [5] 0.035 | [6] -0.014 | [7] -0.016 | [8] -0.029 | [9] -0.02

WDHD1 (UniProt O75717)
inactive: erlotinib 0.007 | [1] 0.173 | [2] 0.093 | [3] -0.002 | [4] 0.026 | [5] 0.038 | [6] -0.02 | [7] -0.028 | [8] -0.031 | [9] -0.013

WDCP (UniProt Q9H6R7)
inactive: erlotinib 0.083 | [1] -0.003 | [2] 0.058 | [3] 0.065 | [4] -0.015 | [5] 0.134 | [6] -0.022 | [7] -0.068 | [8] -0.012 | [9] -0.011

WDR12 (UniProt Q9GZL7)
inactive: erlotinib -0.004 | [1] 0.015 | [2] 0.031 | [3] -0.02 | [4] 0.018 | [5] 0.015 | [6] -0.018 | [7] -0.032 | [8] 0.023 | [9] 0.015

WDR36 (UniProt Q8NI36)
inactive: erlotinib -0.001 | [1] -0.03 | [2] -0.196 | [3] -0.005 | [4] -0.051 | [5] 0.03 | [6] 0.033 | [7] 0.005 | [8] -0.01 | [9] 0.051

WASHC5 (UniProt Q12768)
inactive: erlotinib 0.019 | [1] 0.084 | [2] -0.061 | [3] -0.004 | [4] 0.088 | [5] -0.058 | [6] 0.04 | [7] 0.018 | [8] 0.002 | [9] 0.002

VPS37B (UniProt Q9H9H4)
inactive: erlotinib 0.01 | [1] 0.116 | [2] 0.018 | [3] 0.006 | [4] -0.122 | [5] 0.026 | [6] 0.135 | [7] 0.164 | [8] -0.119 | [9] -0.09

WDFY1 (UniProt Q8IWB7)
inactive: erlotinib 0.006 | [1] 0.031 | [2] 0.039 | [3] 0.012 | [4] -0.056 | [5] 0.034 | [6] -0.016 | [7] -0.099 | [8] 0.018 | [9] 0.083

VPS4B (UniProt O75351)
inactive: erlotinib -0.012 | [1] 0.071 | [2] 0.033 | [3] -0.014 | [4] 0.015 | [5] 0.004 | [6] -0.019 | [7] 0.018 | [8] 0.032 | [9] -0.004

WIPI1 (UniProt Q5MNZ9)
inactive: erlotinib -0.023 | [1] 0.034 | [2] 0.152 | [3] 0.025 | [4] 0.033 | [5] -0.046 | [6] -0.003 | [7] -0.071 | [8] 0.05 | [9] 0.026

WIPI2 (UniProt Q9Y4P8)
inactive: erlotinib 0.047 | [1] 0.051 | [2] 0 | [3] 0.026 | [4] 0.046 | [5] -0.126 | [6] 0.043 | [7] -0.061 | [8] 0.005 | [9] 0.054

WRB (UniProt O00258)
inactive: erlotinib -0.02 | [1] 0.012 | [2] 0.032 | [3] 0.019 | [4] -0.003 | [5] 0.069 | [6] 0.019 | [7] -0.042 | [8] 0.027 | [9] -0.011

WDR18 (UniProt Q9BV38)
inactive: erlotinib 0.058 | [1] 0.039 | [2] 0.024 | [3] -0.015 | [4] -0.111 | [5] 0.031 | [6] -0.045 | [7] 0.011 | [8] -0.035 | [9] 0.065

WBP2 (UniProt Q969T9)
inactive: erlotinib 0.015 | [1] 0.045 | [2] -0.027 | [3] 0.024 | [4] -0.105 | [5] -0.03 | [6] 0.02 | [7] -0.005 | [8] -0.019 | [9] -0.002

WDR7 (UniProt Q9Y4E6)
inactive: erlotinib 0.06 | [1] 0.074 | [2] 0.065 | [3] -0.049 | [4] 0.092 | [5] -0.001 | [6] 0.099 | [7] 0.028 | [8] -0.009 | [9] -0.02

WASHC4 (UniProt Q2M389)
inactive: erlotinib -0.076 | [1] 0.029 | [2] 0.045 | [3] 0.009 | [4] 0.008 | [5] 0.111 | [6] -0.018 | [7] -0.041 | [8] 0.037 | [9] -0.076

VMP1 (UniProt Q96GC9)
inactive: erlotinib 0.004 | [1] 0.006 | [2] 0.093 | [3] -0.026 | [4] 0.019 | [5] 0.06 | [6] -0.015 | [7] -0.019 | [8] -0.012 | [9] 0.018

VIM (UniProt P08670)
inactive: erlotinib -0.053 | [1] -0.146 | [2] -0.292 | [3] 0.141 | [4] -0.155 | [5] 0.084 | [6] -0.144 | [7] -0.111 | [8] 0.025 | [9] -0.168

VPS11 (UniProt Q9H270)
inactive: erlotinib -0.041 | [1] 0.099 | [2] 0.015 | [3] 0.005 | [4] 0.058 | [5] 0.068 | [6] 0.03 | [7] -0.011 | [8] 0.002 | [9] 0.027

VRK2 (UniProt Q86Y07)
inactive: erlotinib 0.004 | [1] 0.014 | [2] -0.021 | [3] -0.026 | [4] -0.065 | [5] 0.011 | [6] -0.02 | [7] 0.118 | [8] 0.013 | [9] 0.072

VPS39 (UniProt Q96JC1)
inactive: erlotinib -0.006 | [1] 0.08 | [2] -0.005 | [3] 0.022 | [4] 0 | [5] 0.023 | [6] -0.014 | [7] -0.046 | [8] 0.01 | [9] 0.054
